{"sequences": {"note": "Sequences of proteins named here, by UniProt entry; tags and fusion partners are left off.", "UniProt P05412": "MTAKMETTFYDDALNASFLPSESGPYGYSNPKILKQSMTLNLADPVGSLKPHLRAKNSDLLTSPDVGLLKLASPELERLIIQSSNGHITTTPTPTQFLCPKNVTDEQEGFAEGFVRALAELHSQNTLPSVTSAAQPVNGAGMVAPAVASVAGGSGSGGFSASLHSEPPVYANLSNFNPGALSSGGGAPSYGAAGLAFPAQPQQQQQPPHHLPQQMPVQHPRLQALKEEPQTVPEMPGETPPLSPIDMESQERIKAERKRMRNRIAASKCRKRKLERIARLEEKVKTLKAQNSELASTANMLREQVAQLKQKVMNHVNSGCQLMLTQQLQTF", "UniProt P35222": "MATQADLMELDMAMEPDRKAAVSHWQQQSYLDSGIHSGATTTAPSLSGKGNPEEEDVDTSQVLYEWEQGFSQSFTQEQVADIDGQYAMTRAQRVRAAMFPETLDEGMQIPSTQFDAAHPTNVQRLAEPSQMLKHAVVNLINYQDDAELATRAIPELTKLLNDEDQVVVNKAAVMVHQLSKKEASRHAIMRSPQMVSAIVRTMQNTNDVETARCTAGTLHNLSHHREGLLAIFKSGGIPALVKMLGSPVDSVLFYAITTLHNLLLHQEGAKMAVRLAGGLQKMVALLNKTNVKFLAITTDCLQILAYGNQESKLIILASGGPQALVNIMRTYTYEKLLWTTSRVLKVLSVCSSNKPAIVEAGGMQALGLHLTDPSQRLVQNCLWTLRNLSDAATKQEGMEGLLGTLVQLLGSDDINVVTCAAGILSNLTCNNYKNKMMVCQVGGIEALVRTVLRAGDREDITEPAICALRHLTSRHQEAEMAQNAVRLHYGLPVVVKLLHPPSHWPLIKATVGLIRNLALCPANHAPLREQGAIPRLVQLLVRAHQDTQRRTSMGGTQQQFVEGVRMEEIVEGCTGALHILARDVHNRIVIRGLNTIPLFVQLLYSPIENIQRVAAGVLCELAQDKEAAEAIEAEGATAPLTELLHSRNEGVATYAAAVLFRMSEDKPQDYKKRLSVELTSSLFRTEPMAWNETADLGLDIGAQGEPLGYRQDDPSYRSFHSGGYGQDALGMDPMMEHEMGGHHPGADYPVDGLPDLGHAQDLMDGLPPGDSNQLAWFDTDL"}, "source": "paper PMC10294335", "molecules": {"B1": {"name": "Non-POU domain-containing octamer-binding protein (NONO), full-length human, in pGADT7 (protein, UniProt Q15233 1-471)", "chain": "MQSNKTFNLEKQNHTPRKHHQHHHQQQHHQQQQQQPPPPPIPANGQQASSQNEGLTIDLKNFRKPGEKTFTQRSRLFVGNLPPDITEEEMRKLFEKYGKAGEVFIHKDKGFGFIRLETRTLAEIAKVELDNMPLRGKQLRVRFACHSASLTVRNLPQYVSNELLEEAFSVFGQVERAVVIVDDRGRPSGKGIVEFSGKPAARKALDRCSEGSFLLTTFPRPVTVEPMDQLDDEEGLPEKLVIKNQQFHKEREQPPRFAQPGSFEYEYAMRWKALIEMEKQQQDQVDRNIKEAREKLEMEMEAARHEHQVMLMRQDLMRRQEELRRMEELHNQEVQKRKQLELRQEEERRRREEEMRRQQEEMMRRQQEGFKGTFPDAREQEIRMGQMAMGGAMGINNRGAMPPAPVPAGTPAPPGPATMMPDGTLGLTPPTTERFGQAATMEGIGAIGGTPPAFNRAAPGAEFAPNKRRRY"}}, "key": {"[1]": {"target": "T1, NONO, endogenous in breast cancer cells (human (endogenous in MCF-7)) (UniProt Q15233)", "T1 sequence": "B1 chain", "assay": "co-IP; anti-NONO (mouse IgG control) on protein G Dynabeads; lysate in 50 mM HEPES, 150 mM NaCl, 1% NP-40, 2 mM EDTA; overnight at 4 °C; Western blot"}, "[2]": {"target": "c-Jun, in yeast two-hybrid (UniProt P05412)", "assay": "two-hybrid; NONO in pGADT7 (Y187) mated with pGBKT7 constructs (Y2H Gold); diploids selected on SD/-Leu/-Trp, interaction read as growth on SD/-Leu/-Trp/-His/-Ade"}}, "note": "No constants are given. Whether binding was seen depends on the method and setting. For part of these data: Binding seen in cells or lysates may run through a third protein. Some entries that bind do so weakly or less than the wild type.", "data": [{"molecule": "c-Jun, endogenous in MCF-7 cells (from UniProt P05412 1-331)", "values": [{"measurement": "binding", "setting": "[1]", "result": "binds"}]}, {"molecule": "β-catenin, endogenous in breast cancer cells (from UniProt P35222 1-781)", "values": [{"measurement": "binding", "setting": "[1]", "result": "binds"}]}, {"molecule": "B1", "values": [{"measurement": "binding", "setting": "[2]", "result": "binds"}]}]}
